For one substance, binding results are on record in publication doi:10.1101/2021.05.10.443488.

Results are given in words; binding and its absence hold for the method and conditions named. In cells and extracts the contact can be indirect. Binding calls can cover weak binding; strength is not graded here. Sequences can lack the tags named with a protein.

The test deals with T1, HelRSv-FLAG (C-terminal FLAG-tagged HelRSv) (Streptomyces venezuelae) (UniProt F2RC64).
T1 sequence: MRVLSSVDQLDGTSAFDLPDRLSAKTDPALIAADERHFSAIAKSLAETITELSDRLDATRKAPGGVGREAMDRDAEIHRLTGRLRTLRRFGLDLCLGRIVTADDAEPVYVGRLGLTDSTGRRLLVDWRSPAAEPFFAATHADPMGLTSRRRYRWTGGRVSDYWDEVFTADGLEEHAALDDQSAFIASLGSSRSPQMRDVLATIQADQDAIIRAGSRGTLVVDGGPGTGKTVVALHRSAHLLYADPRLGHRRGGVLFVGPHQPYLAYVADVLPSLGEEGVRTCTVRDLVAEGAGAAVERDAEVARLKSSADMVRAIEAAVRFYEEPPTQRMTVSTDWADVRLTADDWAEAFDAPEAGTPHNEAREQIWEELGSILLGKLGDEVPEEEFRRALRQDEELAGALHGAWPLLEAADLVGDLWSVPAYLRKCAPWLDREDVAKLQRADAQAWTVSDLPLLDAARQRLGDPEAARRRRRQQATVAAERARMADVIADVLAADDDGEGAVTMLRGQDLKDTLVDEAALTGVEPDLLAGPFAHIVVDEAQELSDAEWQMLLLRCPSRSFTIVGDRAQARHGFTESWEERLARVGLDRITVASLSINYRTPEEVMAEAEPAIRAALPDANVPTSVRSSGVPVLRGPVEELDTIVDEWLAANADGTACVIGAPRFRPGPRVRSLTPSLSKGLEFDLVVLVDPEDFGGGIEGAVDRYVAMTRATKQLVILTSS
Nature of the test: co-IP.

Regarding “RNA polymerase (RNAP) of Streptomyces venezuelae (complex)”, the binding entry is “binds”.
